# Assay results taken from patent publication US20260285903A1, “SYNTHESIZED BIOLOGICALLY ACTIVE COMPOUNDS AND METHODS OF MAKING AND USING” (Georgia State University Research Foundation, Inc., priority 2023, published 2026).
# Test system: NF-κB signaling pathway
# Assay: NF-κB-dependent luciferase activity in NF-κB/293/GFP-Luc cells treated with TNF-α
# Type: cell-based
# Conditions: rank among the 19 MLY compounds
# Experimental: First, the anti-inflammatory activity of MLY compounds on the NF-κB signaling pathway was examined using the NF-xB/293/GFP-LucTnl cell line (System Biosciences). This cell line is specifically designed for use in quantitatively monitoring (by luciferase intensity) transcriptional activation related to the NF-κB signal transduction pathway in vitro. Treatment of NF-κB/293/GFP-Luc™ cells with 10 ng/ml TNF-α for 18 hours induced strong activation of the NF-κB signal transduction pathway (FIGS. 8A and 8B). […] MLY2 and MLY8 induced a strongest 90% reduction of NF-κB activation the anti-inflammatory effect of MLY 2 and 8 was dose-related (FIG. 9). The dose to reduce the NF-κB activation by 50% was […] for M13, 5 μM for MLY2 and 11 μM for MLY8 (FIG. 9).
row,SMILES,Order of Activity
1,"CCCCCC(CC(=O)CCc1ccc(O)c(OC)c1)SC[C@H](NC(=O)[C@@H](N)CCC(=O)O)C(=O)N[C@@H](CC(C)C)C(=O)O (stereo partly drawn) [MLY-2, Glu(alpha)-Cys(6-shogaol)-Leu]",(1)
2,"CCCCCC(CC(=O)CCc1ccc(O)c(OC)c1)SC[C@H](NC(=O)[C@@H](N)CCC(=O)O)C(=O)N1CCC[C@H]1C(=O)O (stereo partly drawn) [MLY-3, Glu(alpha)-Cys(6-shogaol)-Pro]",(11)
3,"CCCCCC(CC(=O)CCc1ccc(O)c(OC)c1)SC[C@H](NC(=O)[C@@H](N)CCC(=O)O)C(=O)N[C@@H](Cc1c[nH]c2ccccc12)C(=O)O (stereo partly drawn) [MLY-4, Glu(alpha)-Cys(6-shogaol)-Trp]",(16)
4,"CCCCCC(CC(=O)CCc1ccc(O)c(OC)c1)SC[C@H](NC(=O)[C@@H](N)CCC(=O)O)C(=O)N[C@@H](Cc1ccc(O)cc1)C(=O)O (stereo partly drawn) [MLY-5, Glu(alpha)-Cys(6-shogaol)-Tyr]",(14)
5,"CCCCCC(CC(=O)CCc1ccc(O)c(OC)c1)SC[C@H](NC(=O)[C@@H](N)CC(=O)O)C(=O)N[C@@H](Cc1ccccc1)C(=O)O (stereo partly drawn) [MLY-6, Asp(alpha)-Cys(6-shogaol)-Phe]",(9)
6,"CCCCCC(CC(=O)CCc1ccc(O)c(OC)c1)SC[C@H](NC(=O)[C@@H](N)CC(=O)O)C(=O)N[C@@H](CC(C)C)C(=O)O (stereo partly drawn) [MLY-7, Asp(alpha)-Cys(6-shogaol)-Leu]",(5)
7,"CCCCCC(CC(=O)CCc1ccc(O)c(OC)c1)SC[C@H](NC(=O)[C@@H](N)CC(=O)O)C(=O)N[C@@H](CCSC)C(=O)O (stereo partly drawn) [MLY-8, Asp(alpha)-Cys(6-shogaol)-Met]",(2)
8,"CCCCCC(CC(=O)CCc1ccc(O)c(OC)c1)SC[C@H](NC(=O)[C@@H](N)CC(=O)O)C(=O)N1CCC[C@H]1C(=O)O (stereo partly drawn) [MLY-9, Asp(alpha)-Cys(6-shogaol)-Pro]",(18)
9,"CCCCCC(CC(=O)CCc1ccc(O)c(OC)c1)SC[C@H](NC(=O)[C@@H](N)CC(=O)O)C(=O)N[C@H](C(=O)O)C(C)C (stereo partly drawn) [MLY-10, Asp(alpha)-Cys(6-shogaol)-Val]",(12)
10,"CCCCCC(CC(=O)CCc1ccc(O)c(OC)c1)SC[C@H](NC(=O)[C@@H](N)CC(=O)O)C(=O)N[C@@H](Cc1c[nH]c2ccccc12)C(=O)O (stereo partly drawn) [MLY-11, Asp(alpha)-Cys(6-shogaol)-Trp]",(3)
11,"CCCCCC(CC(=O)CCc1ccc(O)c(OC)c1)SC[C@H](NC(=O)[C@@H](N)CC(=O)O)C(=O)N[C@@H](Cc1ccc(O)cc1)C(=O)O (stereo partly drawn) [MLY-12, Asp(alpha)-Cys(6-shogaol)-Tyr]",(7)
12,"CCCCCC(CC(=O)CCc1ccc(O)c(OC)c1)SC[C@H](NC(=O)[C@@H](N)CCC(=O)O)C(=O)N[C@@H](CCSC)C(=O)O (stereo partly drawn) [MLY-13, Glu(alpha)-Cys(6-shogaol)-Met]",(10)
13,"CCCCCC(CC(=O)CCc1ccc(O)c(OC)c1)SC[C@H](NC(=O)[C@@H](N)CC(=O)O)C(=O)N[C@H](C(=O)O)[C@@H](C)CC (stereo partly drawn) [MLY-14, Asp(alpha)-Cys(6-shogaol)-Ile]",(17)
14,"CCCCCC(CC(=O)CCc1ccc(O)c(OC)c1)SC[C@H](NC(=O)[C@@H](N)CCC(=O)O)C(=O)N[C@@H](Cc1ccccc1)C(=O)O (stereo partly drawn) [MLY-15, Glu(alpha)-Cys(6-shogaol)-Phe]",(8)
15,"CCCCCC(CC(=O)CCc1ccc(O)c(OC)c1)SC[C@H](NC(=O)[C@@H](N)CCC(=O)O)C(=O)N[C@H](C(=O)O)[C@@H](C)CC (stereo partly drawn) [MLY-16, Glu(alpha)-Cys(6-shogaol)-Ile]",(15)
16,"CCCCCC(CC(=O)CCc1ccc(O)c(OC)c1)SC[C@H](NC(=O)[C@@H](N)CCC(=O)O)C(=O)N[C@H](C(=O)O)C(C)C (stereo partly drawn) [MLY-17, Glu(alpha)-Cys(6-shogaol)-Val]",(6)
17,"CCCCCC(CC(=O)CCc1ccc(O)c(OC)c1)SC[C@H](NC(=O)[C@@H](N)CC(=O)O)C(=O)NCC(=O)O (stereo partly drawn) [MLY-18, Asp(alpha)-Cys(6-shogaol)-Gly]",(19)
18,"CCCCCC(CC(=O)CCc1ccc(O)c(OC)c1)SC[C@H](NC(=O)[C@@H](N)CC(=O)O)C(=O)N[C@@H](C)C(=O)O (stereo partly drawn) [MLY-19, Asp(alpha)-Cys(6-shogaol)-Ala]",(13)
